Source: US8206955B2, “Production of monatin and monatin precursors” (Cargill, Incorporated, priority 2003, dated 2012)
At least one structure is not confirmed: it was looked up by name or label, or the drawing left a doubt.

Test system: C. testosteroni ProA aldolase and L-aspartate aminotransferase (AspC)
Assay: production of monatin utilizing alternative C3-carbon sources
Format: biochemical
Description: The reaction mixture consisted of 50 mM Tris-Cl pH 8.3, 2 mM MgCl2, 200 mM C3 carbon source, 5 mM alpha-ketoglutarate, sodium salt, 0.05 mM pyridoxal phosphate, deaerated water to achieve a final volume of 0.5 mL after the addition of the enzymes, 3 mM potassium phosphate pH 7.5, 25 μg of crude recombinant C. testosteroni ProA aldolase as prepared in Example 2, 500 μg of crude L-aspartate aminotransferase (AspC) as prepared in Example 1, and solid tryptophan to afford a concentration of >60 mM (saturated; some undissolved throughout the reaction). The reaction mix was incubated at 30° C. for 30 minutes with mixing. Serine, alanine, and aspartate were supplied as 3-carbon sources. Assays were performed with and without secondary PLP enzymes (purified) capable of performing beta-elimination and beta-lyase reactions (tryptophanase (TNA), double mutant tryptophanase, β-tyrosinase (TPL)).

Structure (SMILES) | Relative Activity (additional PLP enzyme: 110 μg wildtype TNA (10 U)) | Relative Activity (additional PLP enzyme: 5 U wildtype TPL (crude)) | Relative Activity (200 mM C3 carbon source, additional PLP enzyme: None)
N[C@@H](CC(=O)O)C(=O)O [aspartate] | 7.7% | 5.1% | –
CC(=O)C(=O)O [pyruvate] | – | – | 100%
